Taken from: PubChem BioAssay AID1224828 (NIAID, 2016)

Purpose: 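Regulators linking TLR4 signalling to p65 nuclear translocation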 (primary screen)
Cells: mouse RAW264.7 G9 macrophage reporter cells (GFP-p65, Tnf promoter-mCherry)
Reagent: siRNA pool against mouse genes, 100 nM
Timing: 2 days siRNA transfection, then 40 min LPS before fixation
Treatment: LPS (Salmonella minnesota R595) at 10 ng/ml
Detection: 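Imaged p65 nuclear translocation ratio, normalised to the plate median, converted to robust z-scores and averaged across two replicates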
Direction: p65 translocation robust z-score: higher = more nuclear NF-kappaB p65 after LPS than the plate median; nuclear/cytoplasmic p65 ratio: higher = more nuclear NF-kappaB p65
Call rule: 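Active if robust z is above 3.3 (negative regulators) or below -1.56, the Tlr4 control median (positive regulators); activity score 50 or more; control wells not called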
Calls: active = hit (p65 shift raised or lowered); inactive = no clear change
In all, the deposit lists about 17,000 reagents; this is a random part of them. 762 of them (4.5%) count as active. 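Active calls include both raised and lowered p65 entry, mostly lowered; wells with fewer than 50 cells lack a z-score.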 The raw values are shown without normalisation. Reagents against one gene are numbered here.

With knock-down of Irs4 (GeneID 16370) the results were p65 translocation robust z-score -0.49; nuclear/cytoplasmic p65 ratio, rep 1 = 1.48; nuclear/cytoplasmic p65 ratio, rep 2 = 1.25; low cell count flag enough cells to score; inactive.
Against Zdhhc17 (GeneID 320150), the values are nuclear/cytoplasmic p65 ratio, rep 1 = 1.41; nuclear/cytoplasmic p65 ratio, rep 2 = 1.58; low cell count flag fewer than 50 cells per well; well left out of scoring; inactive.
Silencing of Nfam1 (GeneID 74039) resulted in: p65 translocation robust z-score -1.63; nuclear/cytoplasmic p65 ratio, rep 1 = 1.05; nuclear/cytoplasmic p65 ratio, rep 2 = 1.1; low cell count flag enough cells to score; active.
Silencing of Tbc1d25 (GeneID 209815) resulted in: p65 translocation robust z-score -1.23; nuclear/cytoplasmic p65 ratio, rep 1 = 1.46; nuclear/cytoplasmic p65 ratio, rep 2 = 1.41; low cell count flag enough cells to score; inactive.
With knock-down of Notum (GeneID 77583) the results were p65 translocation robust z-score 0.99; nuclear/cytoplasmic p65 ratio, rep 1 = 1.49; nuclear/cytoplasmic p65 ratio, rep 2 = 1.6; low cell count flag enough cells to score; inactive.
Csprs (GeneID 114564) scored p65 translocation robust z-score 0.11; nuclear/cytoplasmic p65 ratio, rep 1 = 1.66; nuclear/cytoplasmic p65 ratio, rep 2 = 1.73; low cell count flag enough cells to score; inactive.
With knock-down of Krtap19-5 (GeneID 16704), the screen gave p65 translocation robust z-score -1.89; nuclear/cytoplasmic p65 ratio, rep 1 = 1.29; nuclear/cytoplasmic p65 ratio, rep 2 = 1.17; low cell count flag enough cells to score; active.
After knock-down of Artn (GeneID 11876), the record shows p65 translocation robust z-score -0.83; nuclear/cytoplasmic p65 ratio, rep 1 = 1.43; nuclear/cytoplasmic p65 ratio, rep 2 = 1.44; low cell count flag enough cells to score; inactive.
Depletion of Abtb1 (GeneID 80283) gave: p65 translocation robust z-score 0.4; nuclear/cytoplasmic p65 ratio, rep 1 = 1.67; nuclear/cytoplasmic p65 ratio, rep 2 = 1.68; low cell count flag enough cells to score; inactive.

Active calls (from the list above):
Nfam1 (GeneID 74039) — p65 translocation robust z-score = -1.63; nuclear/cytoplasmic p65 ratio, rep 1 = 1.05; nuclear/cytoplasmic p65 ratio, rep 2 = 1.1; low cell count flag = enough cells to score; outcome = active
Krtap19-5 (GeneID 16704) — p65 translocation robust z-score = -1.89; nuclear/cytoplasmic p65 ratio, rep 1 = 1.29; nuclear/cytoplasmic p65 ratio, rep 2 = 1.17; low cell count flag = enough cells to score; outcome = active

The listing continues.
Against Ift46 (GeneID 76568), the entry reads p65 translocation robust z-score 0.8; nuclear/cytoplasmic p65 ratio, rep 1 = 1.63; nuclear/cytoplasmic p65 ratio, rep 2 = 1.58; low cell count flag enough cells to score; inactive.
Against Itpka (GeneID 228550) the deposit lists p65 translocation robust z-score -1.42; nuclear/cytoplasmic p65 ratio, rep 1 = 1.43; nuclear/cytoplasmic p65 ratio, rep 2 = 1.2; low cell count flag enough cells to score; inactive.
Depletion of Dgkk (GeneID 331374) gave: nuclear/cytoplasmic p65 ratio, rep 1 = 1.39; nuclear/cytoplasmic p65 ratio, rep 2 = 1.53; low cell count flag fewer than 50 cells per well; well left out of scoring; inactive.
Spint2 (GeneID 20733) scored p65 translocation robust z-score -0.41; nuclear/cytoplasmic p65 ratio, rep 1 = 1.47; nuclear/cytoplasmic p65 ratio, rep 2 = 1.52; low cell count flag enough cells to score; inactive.
Against Klhl26 (GeneID 234378), the values are p65 translocation robust z-score -0.34; nuclear/cytoplasmic p65 ratio, rep 1 = 1.35; nuclear/cytoplasmic p65 ratio, rep 2 = 1.51; low cell count flag enough cells to score; inactive.
With knock-down of Adissp (GeneID 67326), the screen gave nuclear/cytoplasmic p65 ratio, rep 1 = 1.3; nuclear/cytoplasmic p65 ratio, rep 2 = 1.22; low cell count flag fewer than 50 cells per well; well left out of scoring; inactive.
Depletion of Brpf1 (GeneID 78783) came out at: p65 translocation robust z-score -0.65; nuclear/cytoplasmic p65 ratio, rep 1 = 1.54; nuclear/cytoplasmic p65 ratio, rep 2 = 1.5; low cell count flag enough cells to score; inactive.
For Luc7l2 (GeneID 192196), the entry reads p65 translocation robust z-score 0.16; nuclear/cytoplasmic p65 ratio, rep 1 = 1.74; nuclear/cytoplasmic p65 ratio, rep 2 = 1.57; low cell count flag enough cells to score; inactive.
Gorasp1 (GeneID 74498) showed p65 translocation robust z-score 2.34; nuclear/cytoplasmic p65 ratio, rep 1 = 1.9; nuclear/cytoplasmic p65 ratio, rep 2 = 1.97; low cell count flag enough cells to score; inactive.
After knock-down of Dpagt1 (GeneID 13478), the record shows nuclear/cytoplasmic p65 ratio, rep 1 = 1.39; nuclear/cytoplasmic p65 ratio, rep 2 = 1.44; low cell count flag fewer than 50 cells per well; well left out of scoring; inactive.
Depletion of Slc25a17 (GeneID 20524) #1 came out at: p65 translocation robust z-score 0.29; nuclear/cytoplasmic p65 ratio, rep 1 = 1.43; nuclear/cytoplasmic p65 ratio, rep 2 = 1.3; low cell count flag enough cells to score; inactive.
With knock-down of Slc25a17 (GeneID 20524) #2 the results were p65 translocation robust z-score -0.2; nuclear/cytoplasmic p65 ratio, rep 1 = 1.28; nuclear/cytoplasmic p65 ratio, rep 2 = 1.2; low cell count flag enough cells to score; inactive.
